Source: patent US20240109855A1, “ANTI-QUORUM SENSING, ANTI-BIOFILM, AND INFLAMMATION ATTENUATING COMPOUNDS, COMPOSITIONS, AND METHODS OF USING SAME” (priority 2021, published 2024)
For at least one compound, name, drawing or mass did not settle the structure.

Columns and labels:
[1] = test system: Chromobacterium violaceum (CV026); experiment: Quorum sensing inhibition test with bio-reporter CV026 (TLC overlay); type: cell-based; conditions: running text
Protocol: (§1) TLC preparation: all derivatives were dissolved in 100% acetonitrile to a concentration of 40 mM. Then placed 20 μlon the same spot on the TLC and let the solvent evaporate before use. CV026: few colonies were transferred to liquid LB (Lenox) for overnight incubation at 30° C. in a 45 degree in orbital shaker. At the O.D. 0.8 3 ml of the starter was added to preheated soft LB agar containing 500 nM of 3-oxo-C6 (Sigma-Aldrich). The mixture was then loaded on the TLC in a glass plate for O.N. incubation in 30° C. The next day inhibition zone was measured, while QS is taking place bacteria produce purple pigment, and when QS is inhibited no pigment is produced. KYC55 (pJZ372) (pJZ384) (pJZ410): 20 μl from the frozen stock into 25 ml AT media (AT buffer×20: 1.57 M KH2PO4 pH=7.3. AT salts mix×20: 300 mM (NH4)2SO4, 13 mM MgSO4, 1.4 mM CaCl2, 0.4 mM FeSO4·7H2O, 0.26 mM MnSO4·H2O. AT media: 50 ml×20 AT-buffer, 50 ml×20 AT-salts, 10 ml 50% (w/v) glucose, add 890 ml to final volume of 1 liter.) For O.N. at 30° C. in an orbital shaker. Into preheated water agar with 25 ml AT-buffer, and 60 μg/ml X-gal and 5 nM 3-oxo-c8 (both from Sigma-Aldrich) 25 ml of the starter was added. Then, that mixture was loaded on the TLC in glass plate for O.N. incubation in 30° C. The next day the inhibition zone was measured. The bacteria produce blue pigment during QS and when QS is inhibited no pigment is produced. […]

[2] = test system: Agrobacterium tumefaciens (KYC55); experiment: Quorum sensing inhibition test with bio-reporter KYC55 (TLC overlay); type: cell-based; conditions: running text
Protocol: as §1

`COc1cc(CCC(=O)CC(=O)CCc2ccc(O)c(OC)c2)ccc1O` [HCU, Tetrahydrocurcumin] was tested, and the “QSI activity against CV026, in words” value [1] was “low activity” and the “QSI activity against KYC55, in words” value [2] was “strong activity”.
